Results: patent publication US20240368289A1 (LAEKNA THERAPEUTICS SHANGHAI, published 2024)
Residue numbers refer to the chain shown, from its start. Results are given in words; binding and its absence hold for the method and conditions named. Some entries that bind do so weakly or less than the wild type.

B1: clone J (Fab) (Fab, V domains shown)
VH: QVQLVQSGAEVKKPGSSVKVSCKASGPRFQDLSISWVRQAPGQGLEWMGGIIPIYGTANYAQKFQGRVTITADESTSTAYMELSSLRSEDTAVYYCVKDLTWTNLGLDIWGQGTMVTVSS
VL: EIVMTQSPSSLSASVGDTVTITCRASQGVSRWLAWYQQKPGKAPRLLIYAASSLHSGVPSRFSGSGSGTHFTLTISSLQPEDFATYFCQQSYSTPFTFGPGTKLEIK
B2: L2-Fab-21155 (Fab, V domains shown)
VH: B1 VH with P27F, R28Q, Q30R, D31T, L32S, S33L, I51L, Y55F
VL: B1 VL with A50G, S53P, H55S
B3: 2046 (antibody, V domains shown)
VH: B1 VH
VL: B1 VL with A50G, S52G, S53Q
B4: L2-Fab-21385 (Fab, V domains shown)
VH: B1 VH with P27R, R28H, Q30G, D31S, S33Q
VL: B1 VL with A50G, S52N, S53M, H55R
B5: L2-Fab-21169 (Fab, V domains shown)
VH: B1 VH with P27F, R28Q, Q30R, D31T, L32S, S33L, I51L, Y55F
VL: B1 VL with S52Q, S53G, H55S
B6: L2-Fab-21328 (Fab, V domains shown)
VH: B1 VH with P27E, R28S, Q30E, D31H, L32F, S33Q
VL: B1 VL with A50G, S52R, S53V, H55P
B7: L2-Fab-21302 (Fab, V domains shown)
VH: B1 VH with P27E, R28S, Q30E, D31H, L32F, S33Q
VL: B1 VL with S52R, S53R
B8: 2108 (antibody, V domains shown)
VH: B1 VH
VL: B1 VL with A50H, S52R, S53F, H55Q
B9: 327 (Fab, V domains shown)
VH: B1 VH with P27F, R28Q, Q30R, D31T, L32S, S33L, I51L, Y55F
VL: B1 VL with G28Q, V29Q, R31T, W32F, A34T
B10: L2-Fab-21366 (Fab, V domains shown)
VH: B1 VH
VL: B1 VL with A50W, S52A, S53H, H55Q
B11: 275 (Fab, V domains shown)
VH: B1 VH with P27F, R28Q, Q30R, D31T, L32S, S33L, I51L, Y55F
VL: B1 VL with V29P
B12: L2-Fab-21046 (Fab, V domains shown)
VH: B1 VH with P27E, R28S, Q30E, D31H, L32F, S33Q
VL: B1 VL with A50S, S52R, S53G, H55R
B13: L2-Fab-21343 (Fab, V domains shown)
VH: B1 VH
VL: B1 VL with A50N, S52R, H55F
B14: L2-Fab-21047 (Fab, V domains shown)
VH: B1 VH with P27F, R28Q, Q30R, D31T, L32S, S33L, I51L, Y55F
VL: B1 VL with A50R, S52K, H55M
B15: L2-Fab-21335 (Fab, V domains shown)
VH: B1 VH with P27E, R28S, Q30E, D31H, L32F, S33Q
VL: B1 VL with A50Q, S53R, H55L
B16: L2-Fab-21178 (Fab, V domains shown)
VH: B1 VH with P27R, R28H, Q30G, D31S, S33Q
VL: B1 VL with S52E, S53Q, H55L
B17: L2-Fab-21341 (Fab, V domains shown)
VH: B1 VH
VL: B1 VL with A50S, S52R, S53A
B18: 366 (antibody, V domains shown)
VH: B1 VH with P27F, R28Q, Q30R, D31T, L32S, S33L, I51L, Y55F
VL: B1 VL with V29A, R31Q, A34K
B19: hit 21047 (IgG) (antibody, V domains shown)
VH: B1 VH with P27F, R28Q, Q30R, D31T, L32S, S33L, I51L, Y55F
VL: B1 VL with A50R, S52K, H55M
B20: IgG NGS-5 (CDR shuffling) (antibody, V domains shown)
VH: B1 VH with P27F, R28Q, Q30R, D31T, L32S, S33L, I51L, Y55F
VL: B1 VL with A50S, S52A, L54V, H55C, S56T
B21: IgG 3353 (CDR shuffling) (antibody, V domains shown)
VH: B1 VH with P27F, R28Q, Q30R, D31T, L32S, S33L, I51L, Y55F
VL: B1 VL with G28S, V29I, S30G, Q90E, T94N, F96Y
B22: IgG 3351 (CDR shuffling) (antibody, V domains shown)
VH: B1 VH with P27F, R28Q, Q30R, D31T, L32S, S33L, I51L, Y55F
VL: B1 VL with V29P, A50G, S53P, H55S
B23: IgG NGS-3 (CDR shuffling) (antibody, V domains shown)
VH: B1 VH with P27F, R28Q, Q30R, D31T, L32S, S33L, I51L, Y55F
VL: B1 VL with A50S, A51V, S52A, L54S, H55L, S56H

molecular target: ACVR2A mouse Fc fusion protein (mouse); assay: Activin A competitive ELISA: ACVR2A mouse Fc fusion coated, Fab titrated, then 16.7 nM Activin A added; bound Activin A detected (luminescence)

binding | Binder
binds | B1
binds | B2
binds | B3
binds | B4
binds | B5
binds | B6
binds | B7
binds | B8
binds | B9
binds | B10
binds | B11
binds | B12
binds | B13
binds | B14
binds | B15
binds | B16
binds | B17
binds | B18

molecular target: ACVR2A mouse Fc fusion protein (mouse); assay: Activin A competitive ELISA: ACVR2A mouse Fc fusion coated, IgG titrated, then 16.7 nM Activin A added; bound Activin A detected (luminescence)

binding | Binder
binds | B19
binds | B20
binds | B21
binds | B3
binds | B22
binds | B8
binds | B23
binds | B18
